According to PMC6171931:
Results are given in words; binding and its absence hold for the method and conditions named. In cells and extracts the contact can be indirect. Some results given as binding are weak or reduced against the parent protein; the word gives no strength.

By UniProt entry, the sequences of proteins in these tests, tags left out. Where a name states a change or a piece, a line headed by the entry shows the natural chain unless it says otherwise. Residues count along the entry.
HCV NS3, JFH1 (Hepatitis C virus (JFH1)) (Q99IB8, residues 1031-1661): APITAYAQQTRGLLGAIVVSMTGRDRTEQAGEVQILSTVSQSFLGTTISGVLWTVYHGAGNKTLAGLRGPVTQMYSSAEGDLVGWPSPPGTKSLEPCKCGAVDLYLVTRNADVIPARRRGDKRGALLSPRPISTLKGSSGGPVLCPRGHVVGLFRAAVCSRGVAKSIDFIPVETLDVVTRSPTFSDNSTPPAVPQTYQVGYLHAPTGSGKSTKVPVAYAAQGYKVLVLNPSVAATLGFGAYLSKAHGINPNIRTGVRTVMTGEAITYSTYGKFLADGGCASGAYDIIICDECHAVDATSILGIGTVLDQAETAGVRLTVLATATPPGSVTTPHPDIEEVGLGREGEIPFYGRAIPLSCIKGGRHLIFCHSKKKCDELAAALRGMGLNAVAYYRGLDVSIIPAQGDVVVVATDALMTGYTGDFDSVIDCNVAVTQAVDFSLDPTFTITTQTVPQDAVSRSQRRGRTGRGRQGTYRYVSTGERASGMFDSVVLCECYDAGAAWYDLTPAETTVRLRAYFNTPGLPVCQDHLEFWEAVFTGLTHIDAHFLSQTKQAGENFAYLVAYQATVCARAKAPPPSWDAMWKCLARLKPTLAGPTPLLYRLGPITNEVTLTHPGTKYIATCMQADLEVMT
HCV NS4B, JFH1 (Hepatitis C virus (JFH1)) (Q99IB8, residues 1716-1976): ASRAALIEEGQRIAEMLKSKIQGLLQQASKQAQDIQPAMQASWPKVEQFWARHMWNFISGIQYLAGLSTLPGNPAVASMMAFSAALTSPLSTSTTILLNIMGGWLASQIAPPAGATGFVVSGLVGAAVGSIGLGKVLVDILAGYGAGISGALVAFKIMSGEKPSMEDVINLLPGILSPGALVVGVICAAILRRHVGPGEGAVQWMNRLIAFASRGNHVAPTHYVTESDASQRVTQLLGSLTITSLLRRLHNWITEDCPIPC
HCV NS5A, JFH1 (Hepatitis C virus (JFH1)) (Q99IB8, residues 1977-2442): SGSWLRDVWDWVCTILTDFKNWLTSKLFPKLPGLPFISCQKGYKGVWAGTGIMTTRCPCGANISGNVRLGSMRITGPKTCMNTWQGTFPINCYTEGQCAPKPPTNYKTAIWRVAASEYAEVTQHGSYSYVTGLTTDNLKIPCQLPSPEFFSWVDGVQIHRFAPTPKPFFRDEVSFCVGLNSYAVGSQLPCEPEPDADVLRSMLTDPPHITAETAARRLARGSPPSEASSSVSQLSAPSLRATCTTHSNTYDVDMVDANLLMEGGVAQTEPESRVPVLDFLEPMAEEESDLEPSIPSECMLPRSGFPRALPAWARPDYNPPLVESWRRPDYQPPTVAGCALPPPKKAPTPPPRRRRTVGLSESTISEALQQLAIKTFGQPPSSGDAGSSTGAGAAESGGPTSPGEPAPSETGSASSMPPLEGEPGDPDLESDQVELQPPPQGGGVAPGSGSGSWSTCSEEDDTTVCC
UniProt Q9H1Y0: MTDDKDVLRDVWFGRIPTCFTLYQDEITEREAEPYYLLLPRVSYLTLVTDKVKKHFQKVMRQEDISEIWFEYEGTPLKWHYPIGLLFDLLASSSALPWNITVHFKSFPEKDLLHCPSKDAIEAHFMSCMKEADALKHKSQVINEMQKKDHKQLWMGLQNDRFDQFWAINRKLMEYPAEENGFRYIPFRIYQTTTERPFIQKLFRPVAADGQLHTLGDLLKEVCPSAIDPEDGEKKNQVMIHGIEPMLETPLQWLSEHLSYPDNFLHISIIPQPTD
UniProt Q676U5: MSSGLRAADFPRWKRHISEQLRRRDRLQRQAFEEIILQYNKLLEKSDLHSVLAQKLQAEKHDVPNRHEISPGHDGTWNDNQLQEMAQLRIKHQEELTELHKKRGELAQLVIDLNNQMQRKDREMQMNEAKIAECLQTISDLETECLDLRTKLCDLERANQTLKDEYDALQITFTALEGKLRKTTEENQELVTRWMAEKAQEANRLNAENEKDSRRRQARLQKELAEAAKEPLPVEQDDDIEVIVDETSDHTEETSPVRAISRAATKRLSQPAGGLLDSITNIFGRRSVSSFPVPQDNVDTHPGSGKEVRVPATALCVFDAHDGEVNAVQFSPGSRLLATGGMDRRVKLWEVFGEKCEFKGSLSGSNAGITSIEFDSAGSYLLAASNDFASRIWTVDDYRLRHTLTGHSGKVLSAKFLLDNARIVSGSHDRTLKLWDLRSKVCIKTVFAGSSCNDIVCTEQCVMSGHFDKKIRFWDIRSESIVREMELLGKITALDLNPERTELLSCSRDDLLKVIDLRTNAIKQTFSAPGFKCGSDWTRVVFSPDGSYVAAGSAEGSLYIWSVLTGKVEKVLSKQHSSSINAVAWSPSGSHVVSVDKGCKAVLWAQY

How the values were obtained:
Experiment in all cases: proximity ligation
[1] = target: HCV NS4B, JFH1 (Hepatitis C virus (JFH1)) (UniProt Q99IB8)
[2] = target: HCV NS3, JFH1 (Hepatitis C virus (JFH1)) (UniProt Q99IB8)
[3] = target: HCV NS5A, JFH1 (Hepatitis C virus (JFH1)) (UniProt Q99IB8)

Substance	binding [1]	binding [2]	binding [3]
ATG5-12 conjugate (from UniProt Q9H1Y0 1-275; O94817 1-140) (complex)	binds	binds	binds
ATG16L1 (from UniProt Q676U5 1-607)		no binding	no binding
